According to publication PMC4542694:
These are yes or no findings as the source states them, for the method shown. Some results given as binding are weak or reduced against the parent protein; the word gives no strength.

Molecular target: T1, neoculin basic subunit (NBS), wild type (Curculigo latifolia) (UniProt P19667)
T1 sequence: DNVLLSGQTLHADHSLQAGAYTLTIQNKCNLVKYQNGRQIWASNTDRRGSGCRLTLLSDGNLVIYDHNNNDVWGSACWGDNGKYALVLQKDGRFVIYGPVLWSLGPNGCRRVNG
Assay: reconstitution of the heterodimer by refolding, seen by NMR spectra; isotopically labelled subunit refolded in the presence of its unlabelled counterpart; NMR in 20 mM sodium citrate, pH 3-7, 37°C, 0.03-0.3 mM protein

binding: binds
B1: neoculin acidic subunit (NAS), wild type (protein, UniProt Q6F495 23-135)
chain: DSVLLSGQTLYAGHSLTSGSYTLTIQNNCNLVKYQHGRQIWASDTDGQGSQCRLTLRSDGNLIIYDDNNMVVWGSDCWGNNGTYALVLQQDGLFVIYGPVLWPLGLNGCRSLN
